Record: PubChem BioAssay AID1508587 (Peter MacCallum Cancer Centre, 2020)
Here is an unselected part of about 1,600 reagents. 623 of them (39%) count as active. 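Calls are for each duplex; lactate ratios contain extreme outliers.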 A number with no mark means an inactive call. Reagents against one gene are numbered here. Not all columns of the deposit are shown.

- Screen: 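Retest of knockdowns boosting BRAF inhibitor action on lactate release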 (follow-up of hits)
- System: human WM266.4 melanoma cells with a BRAF V600 mutation
- Reagents: single siRNA against human genes, 25 nM
- Timing: 96 h
- Conditions: vemurafenib 300 nM (about IC25), given 48 h after transfection for 48 h
- Read-out: 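Medium lactate read by absorbance over DAPI-counted nuclei; ratio with versus without vemurafenib, set against non-targeting siRNA, averaged over 2 replicates; cell number also recorded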
- Direction: lactate per cell, drug vs no drug: higher = less drug-induced drop in lactate per cell
- Active means: 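Enhancer call for any duplex whose drug versus no-drug per-cell lactate ratio is below 0.55 (2 SD beneath non-targeting average); genes confirmed when at least 2 of their 4 duplexes qualify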

Against H2BC4 (GeneID 8347) #1 the deposit lists lactate per cell, drug vs no drug 0.48 (active).
Silencing of H2BC4 (GeneID 8347) #2 came out at: lactate per cell, drug vs no drug 0.68.
For H2BC4 (GeneID 8347) #3, the entry reads lactate per cell, drug vs no drug 0.84.
Depletion of H2BC4 (GeneID 8347) #4 gave: lactate per cell, drug vs no drug 0.58.
KLK14 (GeneID 43847) #1 showed lactate per cell, drug vs no drug 0.4 (active).
KLK14 (GeneID 43847) #2 gave lactate per cell, drug vs no drug 0.39 (active).
For KLK14 (GeneID 43847) #3 the deposit lists lactate per cell, drug vs no drug 0.6.
Against KLK14 (GeneID 43847) #4, the entry reads lactate per cell, drug vs no drug 0.44 (active).
Knock-down of USP37 (GeneID 57695) #1 came out at: lactate per cell, drug vs no drug 0.53 (active).
USP37 (GeneID 57695) #2 scored lactate per cell, drug vs no drug 0.52 (active).
USP37 (GeneID 57695) #3 showed lactate per cell, drug vs no drug 0.42 (active).
With knock-down of USP37 (GeneID 57695) #4, the record shows lactate per cell, drug vs no drug 0.4 (active).
CLASRP (GeneID 11129) #1 scored lactate per cell, drug vs no drug 0.52 (active).
Against CLASRP (GeneID 11129) #2, the entry reads lactate per cell, drug vs no drug 0.92.
CLASRP (GeneID 11129) #3 showed lactate per cell, drug vs no drug -0.04 (active).
After knock-down of CLASRP (GeneID 11129) #4, the record shows lactate per cell, drug vs no drug 0.69.
For ZKSCAN4 (GeneID 387032) #1, the values are lactate per cell, drug vs no drug 0.62.
For ZKSCAN4 (GeneID 387032) #2, the values are lactate per cell, drug vs no drug 0.68.
ZKSCAN4 (GeneID 387032) #3 showed lactate per cell, drug vs no drug 0.55.
After knock-down of ZKSCAN4 (GeneID 387032) #4, the screen gave lactate per cell, drug vs no drug 0.52 (active).
OSBP2 (GeneID 23762) #1 showed lactate per cell, drug vs no drug 0.92.
OSBP2 (GeneID 23762) #2 scored lactate per cell, drug vs no drug 0.4 (active).
With knock-down of OSBP2 (GeneID 23762) #3, the record shows lactate per cell, drug vs no drug 0.66.
Depletion of OSBP2 (GeneID 23762) #4 resulted in: lactate per cell, drug vs no drug 0.77.
For SDCCAG8 (GeneID 10806) #1 the deposit lists lactate per cell, drug vs no drug 0.44 (active).
SDCCAG8 (GeneID 10806) #2 gave lactate per cell, drug vs no drug 0.4 (active).
After knock-down of SDCCAG8 (GeneID 10806) #3, the record shows lactate per cell, drug vs no drug 0.6.
Depletion of SDCCAG8 (GeneID 10806) #4 gave: lactate per cell, drug vs no drug 0.73.
Knock-down of FANCM (GeneID 57697) #1 came out at: lactate per cell, drug vs no drug 0.5 (active).
For FANCM (GeneID 57697) #2 the deposit lists lactate per cell, drug vs no drug 0.45 (active).
FANCM (GeneID 57697) #3 scored lactate per cell, drug vs no drug 0.71.
Depletion of FANCM (GeneID 57697) #4 gave: lactate per cell, drug vs no drug 0.68.
After knock-down of CRLF1 (GeneID 9244) #1, the screen gave lactate per cell, drug vs no drug 1.16.
For CRLF1 (GeneID 9244) #2, the values are lactate per cell, drug vs no drug 0.66.
After knock-down of CRLF1 (GeneID 9244) #3 the results were lactate per cell, drug vs no drug 0.44 (active).
CRLF1 (GeneID 9244) #4 scored lactate per cell, drug vs no drug 0.96.
